Source: US20070082871A1, “Antiresorptive mutual salt of raloxifene and bisphosphonic acid” (HANMI PHARM. CO., LTD., priority 2003, published 2007)

Tested on: ovary-removed rats
Details: 1.0 mg/kg (T1)
Experimental: In order to investigate the effects of the inventive mutual salts on BMD, bone stiffness, serum cholesterol level and calcium density, in vivo tests were carried out as follows.
Also, 1.5% carboxymethylcellulose alone was administrated in a same manner to each of ovary-removed rats (group OVX) and normal rats (control, group Sham). After 8 weeks, a femur sample was obtained from each test groups to measure BMD, maximum load, stiffness, trabecular volume of epiphysis, bone volume of metaphysis, blood cholesterol level and blood calcium density.

NCCCC(O)(P(=O)(O)O)P(=O)(O)O [Alendronate, sodium alendronate trihydrate]
Blood calcium density Conc. (oophorectomy rats, oral once a day 8 weeks): 6.15 ± 0.39 mg/dL | BMD Relativ. Density (relative to OVX control = 1.00): 1.19 | Blood calcium density Relativ. Conc. (relative to OVX control = 1.00): 0.65
